Reference: patent publication US20120045437A1 (BOARD OF REGENTS OF THE UNIVERSITY OF OKLAHOMA, published 2012)
These are yes or no findings as the source states them, for the method shown. Some entries that bind do so weakly or less than the wild type.

By UniProt entry, the sequences of proteins in these tests, tags left out. Where a name states a change or a piece, a line headed by the entry shows the natural chain unless it says otherwise.
UniProt O75581: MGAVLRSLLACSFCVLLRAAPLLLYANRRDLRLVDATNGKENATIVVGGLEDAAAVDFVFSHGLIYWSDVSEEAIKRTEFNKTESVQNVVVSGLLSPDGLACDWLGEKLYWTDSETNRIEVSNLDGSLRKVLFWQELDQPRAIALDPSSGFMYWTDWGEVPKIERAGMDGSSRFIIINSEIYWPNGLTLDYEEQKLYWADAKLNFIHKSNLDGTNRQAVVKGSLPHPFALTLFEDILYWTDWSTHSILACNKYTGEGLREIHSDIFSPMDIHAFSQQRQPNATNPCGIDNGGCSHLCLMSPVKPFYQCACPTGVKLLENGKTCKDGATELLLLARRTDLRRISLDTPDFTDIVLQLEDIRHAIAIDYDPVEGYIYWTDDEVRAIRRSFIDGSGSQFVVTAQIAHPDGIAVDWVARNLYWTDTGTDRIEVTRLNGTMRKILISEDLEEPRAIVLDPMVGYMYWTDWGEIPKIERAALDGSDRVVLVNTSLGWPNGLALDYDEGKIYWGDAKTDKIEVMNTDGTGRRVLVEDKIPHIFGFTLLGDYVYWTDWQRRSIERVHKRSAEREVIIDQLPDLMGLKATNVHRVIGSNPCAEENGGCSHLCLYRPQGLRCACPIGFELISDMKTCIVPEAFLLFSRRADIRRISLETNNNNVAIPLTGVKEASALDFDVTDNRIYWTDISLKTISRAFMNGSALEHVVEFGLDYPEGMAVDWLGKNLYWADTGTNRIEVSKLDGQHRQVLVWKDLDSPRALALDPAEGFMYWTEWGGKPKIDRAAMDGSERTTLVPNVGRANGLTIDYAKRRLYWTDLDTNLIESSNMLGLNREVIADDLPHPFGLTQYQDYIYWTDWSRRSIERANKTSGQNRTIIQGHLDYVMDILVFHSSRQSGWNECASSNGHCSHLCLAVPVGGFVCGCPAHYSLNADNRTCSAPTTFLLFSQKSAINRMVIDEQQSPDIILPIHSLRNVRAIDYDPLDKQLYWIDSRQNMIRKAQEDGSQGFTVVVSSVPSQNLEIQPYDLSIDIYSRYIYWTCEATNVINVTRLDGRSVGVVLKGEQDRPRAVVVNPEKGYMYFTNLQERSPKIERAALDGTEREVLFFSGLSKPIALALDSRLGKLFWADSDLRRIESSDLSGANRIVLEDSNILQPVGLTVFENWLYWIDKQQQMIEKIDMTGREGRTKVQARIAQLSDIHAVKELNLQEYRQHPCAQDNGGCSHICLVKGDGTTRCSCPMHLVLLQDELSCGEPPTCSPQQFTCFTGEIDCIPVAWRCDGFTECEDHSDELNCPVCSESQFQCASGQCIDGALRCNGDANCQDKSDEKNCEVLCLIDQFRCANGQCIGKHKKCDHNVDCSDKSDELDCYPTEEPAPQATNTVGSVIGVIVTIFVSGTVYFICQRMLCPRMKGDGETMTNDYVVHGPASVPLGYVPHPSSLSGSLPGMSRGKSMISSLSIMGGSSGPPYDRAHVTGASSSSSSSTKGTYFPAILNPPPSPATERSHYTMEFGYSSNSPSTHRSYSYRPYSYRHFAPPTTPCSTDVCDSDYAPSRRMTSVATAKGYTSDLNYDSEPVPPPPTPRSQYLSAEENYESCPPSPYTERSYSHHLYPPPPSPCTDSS

How the values were obtained:
[1] = target: endogenous rat LRP6 (rat); experiment: Western blot, total cell lysates
LRP6E1E2-His (human) [2] = target: LRP6E1E2-His (human) (UniProt O75581); experiment: summary of the Western blot specificity tests
LRP6E1E2-His (human) [3] = target: LRP6E1E2-His (human) (UniProt O75581); experiment: Western blot, purified recombinant LRP6E1E2-His
[4] = target: LRP6N-Myc (ectodomain of LRP6) (Homo sapiens (Human)) (UniProt O75581); experiment: Western blot, conditioned medium containing LRP6N-Myc
[5] = target: endogenous rat LRP6 (rat); experiment: immunostaining of rat retinal cryosections with FITC-labelled antibody
[6] = target: LRP6-Myc (full-length LRP6 expressed in HEK-293T cells) (Homo sapiens (Human)) (UniProt O75581); experiment: Western blot, total lysates of HEK-293T cells transfected with LRP6-Myc
LRP6E1E2-His (human) [7] = target: LRP6E1E2-His (human) (UniProt O75581); experiment: pre-absorption of the antibody with 10 µg/ml purified LRP6E1E2-His before staining of retinal sections

Measured: binding

B1: Anti-LRP6-1 (antibody, mouse IgG2, V domains shown)
VH: EVQLVESGGGLVQSKGSLKLSCAASGFTFNTYAMNWVRQAPGKGLEWVGRIRSKYNNYVTYYGDSVKDRFTISRDDSQSMLYLQMNNLKTEDTAMYYCVRQGRGSYAMDYWGQGTSVTVSS
VL: NIVMTQSPKSMSMSVGERVTLSCKASENVGTYVSWYQQKPEQSPKLLIYGASNRYTGVPDRFIGSGSATDFTLTIRSVQAEDLADYHCGQSYSYPTFGAGTKLELKR
notes: also called mAb2F1; 2F1
binds: all assays above
